The other results are listed elsewhere or left out.
compound: O=C(O)c1ccc2c(c1)nc(Nc1cccc(Cl)c1)c1ccncc12 [silmitasertib]; assay: log2 fold change, soluble protein after heating vs DMSO (PISA); higher = thermal stabilisation; K562 cells, 10 uM, 30 min; active = over 0.2 and 3.5 SD of the protein, either way, in both replicates (recomputed)
In short: (§1)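 Values are thermal stability changes relative to control samples and are taken from duplicates. They are stated as log2 fold changes. Before quantification by TMTpro 16plex LC-MS/MS with equalised channel sums, K562 cells at 2×10^6 cells/mL were treated with 10 μM compound for 30 min, heated in aliquots for 3 min across 48°C-58°C, pooled, extracted in PBS with 0.5% NP-40 at 4°C, and centrifuged at 21,000xg for 90 min to give the soluble supernatant.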

By UniProt entry, the sequences of proteins in these tests, tags left out. Where a name states a change or a piece, a line headed by the entry shows the natural chain unless it says otherwise.
UniProt Q5BKX6: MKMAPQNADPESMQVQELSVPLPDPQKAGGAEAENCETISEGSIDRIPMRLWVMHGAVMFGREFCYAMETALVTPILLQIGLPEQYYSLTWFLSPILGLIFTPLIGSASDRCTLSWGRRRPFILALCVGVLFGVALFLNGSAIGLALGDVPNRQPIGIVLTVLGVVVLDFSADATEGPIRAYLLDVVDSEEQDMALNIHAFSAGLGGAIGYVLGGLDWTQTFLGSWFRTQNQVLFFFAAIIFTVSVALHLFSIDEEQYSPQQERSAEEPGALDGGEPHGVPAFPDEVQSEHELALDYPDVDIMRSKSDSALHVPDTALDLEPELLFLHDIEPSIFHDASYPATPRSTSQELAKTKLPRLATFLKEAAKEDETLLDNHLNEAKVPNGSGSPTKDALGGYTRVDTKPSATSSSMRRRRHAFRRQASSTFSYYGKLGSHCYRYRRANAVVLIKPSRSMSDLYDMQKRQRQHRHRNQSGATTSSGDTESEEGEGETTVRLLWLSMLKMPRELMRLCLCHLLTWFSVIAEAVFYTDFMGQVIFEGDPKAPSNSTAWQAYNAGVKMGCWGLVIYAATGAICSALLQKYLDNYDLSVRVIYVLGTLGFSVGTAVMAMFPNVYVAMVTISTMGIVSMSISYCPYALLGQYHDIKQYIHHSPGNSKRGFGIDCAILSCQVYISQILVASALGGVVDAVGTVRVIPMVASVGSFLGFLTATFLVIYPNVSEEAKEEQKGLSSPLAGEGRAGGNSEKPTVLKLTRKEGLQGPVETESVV
UniProt Q08357: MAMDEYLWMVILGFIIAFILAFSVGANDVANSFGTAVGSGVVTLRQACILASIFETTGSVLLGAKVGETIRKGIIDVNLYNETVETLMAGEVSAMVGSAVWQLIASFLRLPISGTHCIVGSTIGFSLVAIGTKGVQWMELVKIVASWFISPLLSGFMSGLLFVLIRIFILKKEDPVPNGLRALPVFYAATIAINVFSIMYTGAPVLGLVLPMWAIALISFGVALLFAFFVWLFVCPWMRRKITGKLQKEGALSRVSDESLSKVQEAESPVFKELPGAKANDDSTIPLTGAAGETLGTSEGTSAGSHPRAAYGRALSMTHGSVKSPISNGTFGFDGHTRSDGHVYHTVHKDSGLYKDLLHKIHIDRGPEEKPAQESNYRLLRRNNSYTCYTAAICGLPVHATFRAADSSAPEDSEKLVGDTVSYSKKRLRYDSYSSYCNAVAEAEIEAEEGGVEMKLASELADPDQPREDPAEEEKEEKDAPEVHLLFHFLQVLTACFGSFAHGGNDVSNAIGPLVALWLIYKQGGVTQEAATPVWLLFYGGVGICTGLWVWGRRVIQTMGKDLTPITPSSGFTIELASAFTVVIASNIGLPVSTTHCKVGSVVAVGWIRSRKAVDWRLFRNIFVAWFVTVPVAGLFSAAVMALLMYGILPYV
UniProt Q13433: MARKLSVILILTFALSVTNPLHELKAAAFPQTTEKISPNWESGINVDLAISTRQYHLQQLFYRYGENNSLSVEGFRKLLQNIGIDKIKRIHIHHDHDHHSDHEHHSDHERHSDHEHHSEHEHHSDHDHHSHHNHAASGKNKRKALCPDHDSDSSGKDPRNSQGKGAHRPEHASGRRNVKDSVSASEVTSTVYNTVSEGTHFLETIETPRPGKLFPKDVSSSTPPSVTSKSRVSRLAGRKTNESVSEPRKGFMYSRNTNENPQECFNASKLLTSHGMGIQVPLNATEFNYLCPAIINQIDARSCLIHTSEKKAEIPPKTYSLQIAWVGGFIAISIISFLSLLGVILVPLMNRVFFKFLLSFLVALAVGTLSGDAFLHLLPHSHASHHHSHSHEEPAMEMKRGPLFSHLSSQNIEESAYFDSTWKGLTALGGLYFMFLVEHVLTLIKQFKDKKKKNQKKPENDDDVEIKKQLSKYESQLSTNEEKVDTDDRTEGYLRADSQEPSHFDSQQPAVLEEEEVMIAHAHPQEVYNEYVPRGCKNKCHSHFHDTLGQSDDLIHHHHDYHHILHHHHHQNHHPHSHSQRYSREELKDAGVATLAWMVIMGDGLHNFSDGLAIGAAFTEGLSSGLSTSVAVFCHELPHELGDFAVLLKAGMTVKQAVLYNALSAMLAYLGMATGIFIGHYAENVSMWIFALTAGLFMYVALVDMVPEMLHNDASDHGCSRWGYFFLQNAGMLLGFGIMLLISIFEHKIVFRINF
UniProt Q8TAD4: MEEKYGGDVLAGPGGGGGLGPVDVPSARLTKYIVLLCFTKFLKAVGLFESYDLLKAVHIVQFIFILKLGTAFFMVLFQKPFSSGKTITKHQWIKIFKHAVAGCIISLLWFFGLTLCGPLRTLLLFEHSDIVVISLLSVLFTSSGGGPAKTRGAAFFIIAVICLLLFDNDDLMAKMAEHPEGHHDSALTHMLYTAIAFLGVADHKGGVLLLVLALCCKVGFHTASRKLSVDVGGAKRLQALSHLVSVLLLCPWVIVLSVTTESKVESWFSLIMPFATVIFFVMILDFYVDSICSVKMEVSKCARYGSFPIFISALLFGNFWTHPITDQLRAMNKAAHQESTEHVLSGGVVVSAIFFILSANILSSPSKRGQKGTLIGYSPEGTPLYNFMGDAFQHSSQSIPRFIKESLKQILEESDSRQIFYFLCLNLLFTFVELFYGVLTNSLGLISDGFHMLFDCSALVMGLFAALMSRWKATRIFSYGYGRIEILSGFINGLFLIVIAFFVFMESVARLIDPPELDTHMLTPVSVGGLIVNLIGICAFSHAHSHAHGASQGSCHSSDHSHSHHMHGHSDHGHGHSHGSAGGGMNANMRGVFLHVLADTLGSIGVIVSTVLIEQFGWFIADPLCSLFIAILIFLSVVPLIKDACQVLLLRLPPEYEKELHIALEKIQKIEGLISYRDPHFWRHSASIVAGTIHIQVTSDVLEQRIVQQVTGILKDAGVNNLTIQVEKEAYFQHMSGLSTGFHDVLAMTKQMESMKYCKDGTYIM
UniProt P53007, whole entry, looked up: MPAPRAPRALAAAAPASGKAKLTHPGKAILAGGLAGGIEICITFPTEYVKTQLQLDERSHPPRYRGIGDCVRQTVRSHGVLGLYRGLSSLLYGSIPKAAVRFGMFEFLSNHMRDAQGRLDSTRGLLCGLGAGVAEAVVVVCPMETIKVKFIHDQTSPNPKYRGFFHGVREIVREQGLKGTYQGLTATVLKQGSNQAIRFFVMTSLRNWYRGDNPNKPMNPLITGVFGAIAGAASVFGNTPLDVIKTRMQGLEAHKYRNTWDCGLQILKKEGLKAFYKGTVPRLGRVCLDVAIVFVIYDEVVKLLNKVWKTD
UniProt Q9Y6M5: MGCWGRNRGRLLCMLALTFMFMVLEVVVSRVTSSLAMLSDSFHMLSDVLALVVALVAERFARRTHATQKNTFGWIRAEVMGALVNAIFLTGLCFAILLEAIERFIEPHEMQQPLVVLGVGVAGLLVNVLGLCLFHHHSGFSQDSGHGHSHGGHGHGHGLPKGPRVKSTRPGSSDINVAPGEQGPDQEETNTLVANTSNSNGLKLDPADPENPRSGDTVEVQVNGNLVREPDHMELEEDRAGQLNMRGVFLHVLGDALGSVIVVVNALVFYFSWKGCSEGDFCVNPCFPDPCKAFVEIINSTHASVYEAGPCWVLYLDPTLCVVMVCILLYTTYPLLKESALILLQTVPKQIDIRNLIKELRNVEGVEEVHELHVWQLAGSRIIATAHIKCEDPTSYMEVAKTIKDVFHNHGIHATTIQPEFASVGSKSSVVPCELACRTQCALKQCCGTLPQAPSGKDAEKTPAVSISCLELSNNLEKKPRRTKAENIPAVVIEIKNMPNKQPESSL
UniProt Q9Y289: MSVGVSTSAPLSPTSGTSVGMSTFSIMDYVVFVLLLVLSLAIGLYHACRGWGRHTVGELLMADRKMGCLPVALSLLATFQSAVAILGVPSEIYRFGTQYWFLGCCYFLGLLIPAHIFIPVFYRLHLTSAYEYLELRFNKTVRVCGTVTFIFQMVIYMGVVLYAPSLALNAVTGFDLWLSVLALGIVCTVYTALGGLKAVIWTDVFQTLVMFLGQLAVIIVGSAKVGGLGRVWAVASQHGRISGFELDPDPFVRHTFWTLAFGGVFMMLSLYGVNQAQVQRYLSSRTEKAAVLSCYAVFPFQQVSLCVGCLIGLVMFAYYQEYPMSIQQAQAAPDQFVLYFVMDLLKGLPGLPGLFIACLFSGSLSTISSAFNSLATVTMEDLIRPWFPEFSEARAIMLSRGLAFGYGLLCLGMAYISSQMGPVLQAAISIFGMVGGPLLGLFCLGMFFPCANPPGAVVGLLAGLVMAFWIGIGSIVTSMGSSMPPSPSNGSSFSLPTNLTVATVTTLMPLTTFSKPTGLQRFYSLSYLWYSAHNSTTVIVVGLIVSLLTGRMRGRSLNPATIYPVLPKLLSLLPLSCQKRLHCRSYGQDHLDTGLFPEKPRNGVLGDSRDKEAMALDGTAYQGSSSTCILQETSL
UniProt Q9BXS9: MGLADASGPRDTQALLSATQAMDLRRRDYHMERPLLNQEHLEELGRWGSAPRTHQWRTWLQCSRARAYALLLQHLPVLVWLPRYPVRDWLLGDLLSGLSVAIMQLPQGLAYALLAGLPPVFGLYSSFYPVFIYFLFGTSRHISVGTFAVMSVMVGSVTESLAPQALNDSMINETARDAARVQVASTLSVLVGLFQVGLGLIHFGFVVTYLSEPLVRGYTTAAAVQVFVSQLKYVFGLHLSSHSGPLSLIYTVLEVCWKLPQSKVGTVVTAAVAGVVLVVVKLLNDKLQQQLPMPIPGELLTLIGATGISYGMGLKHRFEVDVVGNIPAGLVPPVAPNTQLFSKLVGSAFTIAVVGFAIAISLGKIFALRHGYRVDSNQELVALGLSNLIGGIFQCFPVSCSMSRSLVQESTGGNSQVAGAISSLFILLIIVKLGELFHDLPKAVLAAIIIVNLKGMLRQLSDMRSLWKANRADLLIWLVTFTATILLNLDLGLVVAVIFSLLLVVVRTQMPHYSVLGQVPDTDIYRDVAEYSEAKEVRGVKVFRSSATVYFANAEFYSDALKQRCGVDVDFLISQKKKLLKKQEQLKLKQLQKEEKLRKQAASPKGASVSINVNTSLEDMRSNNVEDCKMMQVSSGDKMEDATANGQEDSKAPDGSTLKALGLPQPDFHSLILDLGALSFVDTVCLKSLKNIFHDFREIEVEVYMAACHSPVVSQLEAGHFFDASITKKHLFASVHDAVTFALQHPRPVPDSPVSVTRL
UniProt Q96H78: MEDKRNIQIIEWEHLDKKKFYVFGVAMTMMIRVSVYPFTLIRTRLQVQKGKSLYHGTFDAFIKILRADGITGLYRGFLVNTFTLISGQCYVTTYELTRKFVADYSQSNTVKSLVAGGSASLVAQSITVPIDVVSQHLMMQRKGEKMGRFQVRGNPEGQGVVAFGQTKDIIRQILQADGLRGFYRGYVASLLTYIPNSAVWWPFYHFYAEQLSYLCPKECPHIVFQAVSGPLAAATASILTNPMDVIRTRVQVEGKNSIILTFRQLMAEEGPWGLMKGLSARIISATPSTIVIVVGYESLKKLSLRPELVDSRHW
UniProt Q92504: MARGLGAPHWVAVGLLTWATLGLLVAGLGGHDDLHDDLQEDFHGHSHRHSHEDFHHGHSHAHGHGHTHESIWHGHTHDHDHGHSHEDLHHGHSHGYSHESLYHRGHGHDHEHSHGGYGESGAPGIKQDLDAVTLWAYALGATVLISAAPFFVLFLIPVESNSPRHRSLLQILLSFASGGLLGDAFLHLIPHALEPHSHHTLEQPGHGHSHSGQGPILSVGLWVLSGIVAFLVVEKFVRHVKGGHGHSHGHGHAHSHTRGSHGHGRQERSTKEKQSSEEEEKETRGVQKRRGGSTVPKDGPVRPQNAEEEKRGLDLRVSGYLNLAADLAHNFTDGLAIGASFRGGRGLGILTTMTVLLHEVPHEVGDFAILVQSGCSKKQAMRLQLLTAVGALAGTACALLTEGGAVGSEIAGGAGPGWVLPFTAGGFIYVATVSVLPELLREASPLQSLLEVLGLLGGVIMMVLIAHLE
UniProt Q14542: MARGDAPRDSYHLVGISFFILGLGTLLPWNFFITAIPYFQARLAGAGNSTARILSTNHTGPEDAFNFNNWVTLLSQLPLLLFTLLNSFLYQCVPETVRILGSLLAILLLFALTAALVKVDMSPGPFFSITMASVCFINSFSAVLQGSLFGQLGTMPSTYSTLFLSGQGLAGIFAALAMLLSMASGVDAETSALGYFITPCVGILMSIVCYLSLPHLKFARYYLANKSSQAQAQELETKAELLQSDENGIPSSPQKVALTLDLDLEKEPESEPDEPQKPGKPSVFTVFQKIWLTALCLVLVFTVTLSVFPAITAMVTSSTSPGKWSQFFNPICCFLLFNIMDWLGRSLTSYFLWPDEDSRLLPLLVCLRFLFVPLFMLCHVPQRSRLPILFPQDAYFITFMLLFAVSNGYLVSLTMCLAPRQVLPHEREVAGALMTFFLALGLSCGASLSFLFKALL
UniProt L0R6Q1: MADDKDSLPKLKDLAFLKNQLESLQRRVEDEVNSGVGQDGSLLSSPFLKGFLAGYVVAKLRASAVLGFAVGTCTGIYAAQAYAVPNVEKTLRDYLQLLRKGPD

log2 fold change, inactive:
SLC39A10 (UniProt Q9ULF5) -0.058
SLC45A4 isoform 3 (UniProt Q5BKX6) -0.016
SLC3A2 isoform 3 (UniProt P08195) -0.076
SLC20A2 (UniProt Q08357) 0
SLC25A25 isoform 3 (UniProt Q6KCM7) -0.029
SLC39A6 (UniProt Q13433) -0.03
SLC30A5 (UniProt Q8TAD4) -0.022
SLC6A8 (UniProt P48029) 0.075
SLC25A1 (UniProt P53007) -0.002
SLC25A37 (UniProt Q9NYZ2) 0.095
SLC4A1AP (UniProt Q9BWU0) 0.055
SLC30A1 (UniProt Q9Y6M5) 0.026
SLC20A1 (UniProt Q8WUM9) 0.006
SLC5A6 (UniProt Q9Y289) -0.104
SLC35B2 (UniProt Q8TB61) -0.011
SLC35A2 isoform 4 (UniProt P78381) 0.019
SLC25A24 (UniProt Q6NUK1) 0.01
SLC1A4 (UniProt P43007) -0.009
SLC25A16 (UniProt P16260) 0.009
SLC25A3 isoform 2 (UniProt Q00325) -0.007
SLC25A22 (UniProt Q9H936) 0.006
SLC7A5 (UniProt Q01650) -0.014
SLC26A6 (UniProt Q9BXS9) 0.058
SLC25A11 (UniProt Q02978) 0.038
SLC2A3 (UniProt P11169) -0.001
SLC25A44 (UniProt Q96H78) 0.19
SLC16A1 (UniProt P53985) 0.008
SLC25A5 (UniProt P05141) -0.013
SLC29A1 isoform 2 (UniProt Q99808) 0.023
SLC25A51 (UniProt Q9H1U9) 0.01
SLC38A10 (UniProt Q9HBR0) 0.006
SLC25A31 (UniProt Q9H0C2) -0.019
SLC25A40 (UniProt Q8TBP6) -0.057
SLC39A8 (UniProt Q9C0K1) 0.051
SLC39A7 (UniProt Q92504) 0.004
SLC29A2 (UniProt Q14542) -0.03
SLC39A14 (UniProt Q15043) -0.011
SLC35A4 (UniProt L0R6Q1) 0.064

compound: O=C1NC(=O)C(c2cnc3ccccn23)=C1c1cn2c3c(cc(F)cc13)CN(C(=O)N1CCCCC1)CC2; assay: as above
In short: as §1

log2 fold change, inactive:
SLC39A10 (UniProt Q9ULF5) -0.004
SLC45A4 isoform 3 (UniProt Q5BKX6) -0.134
SLC3A2 isoform 3 (UniProt P08195) -0.025
SLC20A2 (UniProt Q08357) -0.075
SLC25A25 isoform 3 (UniProt Q6KCM7) -0.01
SLC39A6 (UniProt Q13433) -0.033
SLC30A5 (UniProt Q8TAD4) -0.1
SLC6A8 (UniProt P48029) -0.049
SLC25A1 (UniProt P53007) 0.003
SLC25A37 (UniProt Q9NYZ2) -0.09
SLC4A1AP (UniProt Q9BWU0) -0.03
SLC30A1 (UniProt Q9Y6M5) -0.002
SLC20A1 (UniProt Q8WUM9) 0.062
SLC5A6 (UniProt Q9Y289) 0.036
SLC35B2 (UniProt Q8TB61) -0.034
SLC35A2 isoform 4 (UniProt P78381) 0.028
SLC25A24 (UniProt Q6NUK1) -0.056
SLC1A4 (UniProt P43007) -0.064
SLC25A16 (UniProt P16260) 0.078
SLC25A3 isoform 2 (UniProt Q00325) -0.021
SLC25A22 (UniProt Q9H936) -0.05
SLC7A5 (UniProt Q01650) -0.007
SLC26A6 (UniProt Q9BXS9) -0.032
SLC25A11 (UniProt Q02978) -0.028
SLC2A3 (UniProt P11169) 0.054
SLC25A44 (UniProt Q96H78) -0.026
SLC16A1 (UniProt P53985) 0.026
SLC25A5 (UniProt P05141) -0.044
SLC29A1 isoform 2 (UniProt Q99808) 0.006
SLC25A51 (UniProt Q9H1U9) -0.021
SLC38A10 (UniProt Q9HBR0) -0.031
SLC25A31 (UniProt Q9H0C2) 0.022
SLC25A40 (UniProt Q8TBP6) -0.063
SLC39A8 (UniProt Q9C0K1) 0.03
SLC39A7 (UniProt Q92504) -0.037
SLC29A2 (UniProt Q14542) 0.086
SLC39A14 (UniProt Q15043) -0.02
SLC35A4 (UniProt L0R6Q1) -0.166

Source: the supplement of paper PMC10849652
